# Data: the supplement of paper PMC11732987, “Enantioselective OTUD7B fragment discovery through chemoproteomics screening and high-throughput optimisation” (Communications Chemistry, 2025)
# Sequences of proteins named here, by UniProt entry; tags and fusion partners are left off. A change or cut given only in a name is not applied to a line headed by its entry. Residues count along the entry.
# UniProt O60566, 648-667: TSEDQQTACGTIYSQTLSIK
# UniProt Q9H8G2, 215-234: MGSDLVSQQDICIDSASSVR
# UniProt P38398, 224-251: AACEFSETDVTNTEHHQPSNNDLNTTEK
# UniProt Q99622: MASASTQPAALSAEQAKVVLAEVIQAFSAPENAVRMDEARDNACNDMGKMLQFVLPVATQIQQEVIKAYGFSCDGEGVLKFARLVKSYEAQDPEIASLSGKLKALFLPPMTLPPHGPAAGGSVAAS
# UniProt Q8NFC6: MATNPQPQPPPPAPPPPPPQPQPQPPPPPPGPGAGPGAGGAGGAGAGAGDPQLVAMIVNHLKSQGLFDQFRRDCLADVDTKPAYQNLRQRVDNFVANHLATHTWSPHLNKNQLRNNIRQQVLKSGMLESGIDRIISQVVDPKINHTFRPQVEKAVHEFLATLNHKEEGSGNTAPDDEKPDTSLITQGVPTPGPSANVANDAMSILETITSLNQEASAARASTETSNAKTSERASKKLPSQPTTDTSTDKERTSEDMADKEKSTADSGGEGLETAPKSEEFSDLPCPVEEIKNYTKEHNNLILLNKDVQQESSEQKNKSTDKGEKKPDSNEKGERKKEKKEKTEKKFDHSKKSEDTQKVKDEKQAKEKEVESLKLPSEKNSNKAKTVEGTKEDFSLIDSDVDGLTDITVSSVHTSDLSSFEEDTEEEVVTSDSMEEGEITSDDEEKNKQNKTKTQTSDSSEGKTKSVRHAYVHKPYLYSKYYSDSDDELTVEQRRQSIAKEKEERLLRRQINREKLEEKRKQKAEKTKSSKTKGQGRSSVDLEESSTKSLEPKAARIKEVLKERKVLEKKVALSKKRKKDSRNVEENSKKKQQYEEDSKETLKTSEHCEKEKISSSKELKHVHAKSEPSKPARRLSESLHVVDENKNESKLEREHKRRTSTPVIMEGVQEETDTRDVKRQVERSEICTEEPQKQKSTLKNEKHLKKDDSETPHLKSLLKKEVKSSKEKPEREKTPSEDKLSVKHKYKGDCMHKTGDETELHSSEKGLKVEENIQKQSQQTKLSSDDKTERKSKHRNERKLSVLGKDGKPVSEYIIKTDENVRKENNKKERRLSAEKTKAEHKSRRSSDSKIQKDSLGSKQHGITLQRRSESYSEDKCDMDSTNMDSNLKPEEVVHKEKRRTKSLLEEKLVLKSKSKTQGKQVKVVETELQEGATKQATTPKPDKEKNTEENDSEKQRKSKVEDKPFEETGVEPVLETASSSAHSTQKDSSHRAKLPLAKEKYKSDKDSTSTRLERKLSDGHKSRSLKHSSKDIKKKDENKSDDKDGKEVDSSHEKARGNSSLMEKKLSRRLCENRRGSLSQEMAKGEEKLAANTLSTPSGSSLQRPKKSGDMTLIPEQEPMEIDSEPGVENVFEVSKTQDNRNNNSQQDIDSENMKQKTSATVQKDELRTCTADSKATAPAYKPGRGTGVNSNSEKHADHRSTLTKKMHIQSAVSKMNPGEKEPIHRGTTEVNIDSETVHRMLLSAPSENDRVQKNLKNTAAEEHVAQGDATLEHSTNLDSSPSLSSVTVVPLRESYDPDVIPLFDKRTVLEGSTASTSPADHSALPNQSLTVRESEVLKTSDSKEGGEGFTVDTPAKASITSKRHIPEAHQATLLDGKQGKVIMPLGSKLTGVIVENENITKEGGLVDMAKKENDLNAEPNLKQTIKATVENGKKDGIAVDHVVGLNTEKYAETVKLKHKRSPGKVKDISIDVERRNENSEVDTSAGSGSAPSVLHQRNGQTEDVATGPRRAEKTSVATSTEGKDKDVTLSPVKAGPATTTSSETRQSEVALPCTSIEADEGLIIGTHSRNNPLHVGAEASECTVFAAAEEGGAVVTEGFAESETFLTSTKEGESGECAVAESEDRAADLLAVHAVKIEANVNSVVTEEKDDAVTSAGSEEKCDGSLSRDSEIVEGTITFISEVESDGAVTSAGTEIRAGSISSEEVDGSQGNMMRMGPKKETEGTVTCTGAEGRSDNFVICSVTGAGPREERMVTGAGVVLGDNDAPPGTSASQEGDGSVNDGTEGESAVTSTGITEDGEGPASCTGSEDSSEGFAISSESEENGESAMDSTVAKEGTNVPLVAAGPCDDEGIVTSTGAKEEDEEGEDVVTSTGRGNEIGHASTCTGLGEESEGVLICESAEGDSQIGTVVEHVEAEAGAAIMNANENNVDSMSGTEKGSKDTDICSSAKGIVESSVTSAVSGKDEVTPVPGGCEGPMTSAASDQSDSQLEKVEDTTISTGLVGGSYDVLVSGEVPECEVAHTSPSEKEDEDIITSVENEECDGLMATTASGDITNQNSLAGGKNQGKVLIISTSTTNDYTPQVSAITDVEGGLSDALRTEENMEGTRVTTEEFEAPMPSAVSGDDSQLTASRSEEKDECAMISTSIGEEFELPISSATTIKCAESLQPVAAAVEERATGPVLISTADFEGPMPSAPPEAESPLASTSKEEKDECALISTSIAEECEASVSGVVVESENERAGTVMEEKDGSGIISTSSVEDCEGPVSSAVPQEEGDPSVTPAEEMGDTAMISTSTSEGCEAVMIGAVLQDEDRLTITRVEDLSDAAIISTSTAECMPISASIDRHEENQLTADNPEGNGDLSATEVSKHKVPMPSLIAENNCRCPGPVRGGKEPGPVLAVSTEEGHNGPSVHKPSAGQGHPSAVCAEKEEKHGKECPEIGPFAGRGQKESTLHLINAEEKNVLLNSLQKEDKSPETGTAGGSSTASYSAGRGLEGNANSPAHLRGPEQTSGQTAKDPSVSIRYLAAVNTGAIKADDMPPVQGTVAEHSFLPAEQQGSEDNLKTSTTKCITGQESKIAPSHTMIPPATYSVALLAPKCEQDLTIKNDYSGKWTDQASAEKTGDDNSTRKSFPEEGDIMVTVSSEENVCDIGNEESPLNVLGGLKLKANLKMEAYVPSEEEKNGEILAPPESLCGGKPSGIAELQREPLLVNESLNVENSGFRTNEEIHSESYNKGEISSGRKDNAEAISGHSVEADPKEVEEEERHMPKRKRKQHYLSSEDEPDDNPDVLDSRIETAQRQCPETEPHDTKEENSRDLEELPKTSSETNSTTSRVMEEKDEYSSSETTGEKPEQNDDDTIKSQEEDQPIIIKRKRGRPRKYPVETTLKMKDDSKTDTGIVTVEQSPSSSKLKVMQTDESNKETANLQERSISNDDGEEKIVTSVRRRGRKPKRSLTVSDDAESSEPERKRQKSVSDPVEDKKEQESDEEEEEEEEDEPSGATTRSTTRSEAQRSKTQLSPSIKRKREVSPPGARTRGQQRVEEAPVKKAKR
# UniProt Q9NPI1: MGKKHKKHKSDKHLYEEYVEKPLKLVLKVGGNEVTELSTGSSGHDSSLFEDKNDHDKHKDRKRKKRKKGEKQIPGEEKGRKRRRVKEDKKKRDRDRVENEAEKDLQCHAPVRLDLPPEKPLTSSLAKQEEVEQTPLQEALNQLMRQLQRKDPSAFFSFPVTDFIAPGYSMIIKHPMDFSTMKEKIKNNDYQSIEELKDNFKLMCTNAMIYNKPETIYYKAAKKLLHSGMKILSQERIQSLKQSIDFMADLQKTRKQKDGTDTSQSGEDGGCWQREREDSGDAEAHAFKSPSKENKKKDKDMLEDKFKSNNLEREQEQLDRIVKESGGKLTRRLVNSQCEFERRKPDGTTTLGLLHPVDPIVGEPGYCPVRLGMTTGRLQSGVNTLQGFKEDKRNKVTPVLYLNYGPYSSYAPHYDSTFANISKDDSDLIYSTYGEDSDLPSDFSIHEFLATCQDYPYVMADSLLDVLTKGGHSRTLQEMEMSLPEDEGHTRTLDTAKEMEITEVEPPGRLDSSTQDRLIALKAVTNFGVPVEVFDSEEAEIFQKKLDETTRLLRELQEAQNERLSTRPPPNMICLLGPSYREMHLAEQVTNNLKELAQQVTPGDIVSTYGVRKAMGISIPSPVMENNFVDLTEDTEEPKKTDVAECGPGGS
# UniProt Q9Y2G2: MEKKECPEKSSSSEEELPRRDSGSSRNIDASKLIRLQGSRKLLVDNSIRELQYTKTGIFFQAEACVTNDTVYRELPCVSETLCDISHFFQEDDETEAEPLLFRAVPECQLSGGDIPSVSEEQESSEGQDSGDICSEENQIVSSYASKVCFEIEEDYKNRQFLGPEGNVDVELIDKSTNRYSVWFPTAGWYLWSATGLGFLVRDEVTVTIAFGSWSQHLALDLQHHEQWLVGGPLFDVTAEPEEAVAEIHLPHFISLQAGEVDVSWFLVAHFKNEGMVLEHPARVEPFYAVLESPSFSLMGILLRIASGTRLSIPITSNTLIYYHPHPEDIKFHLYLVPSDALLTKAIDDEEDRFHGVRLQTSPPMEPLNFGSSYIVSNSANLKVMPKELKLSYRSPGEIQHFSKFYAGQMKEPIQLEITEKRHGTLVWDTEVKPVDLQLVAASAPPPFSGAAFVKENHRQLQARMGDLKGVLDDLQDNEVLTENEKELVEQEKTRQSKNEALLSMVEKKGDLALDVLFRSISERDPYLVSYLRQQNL
# UniProt Q9NSG2: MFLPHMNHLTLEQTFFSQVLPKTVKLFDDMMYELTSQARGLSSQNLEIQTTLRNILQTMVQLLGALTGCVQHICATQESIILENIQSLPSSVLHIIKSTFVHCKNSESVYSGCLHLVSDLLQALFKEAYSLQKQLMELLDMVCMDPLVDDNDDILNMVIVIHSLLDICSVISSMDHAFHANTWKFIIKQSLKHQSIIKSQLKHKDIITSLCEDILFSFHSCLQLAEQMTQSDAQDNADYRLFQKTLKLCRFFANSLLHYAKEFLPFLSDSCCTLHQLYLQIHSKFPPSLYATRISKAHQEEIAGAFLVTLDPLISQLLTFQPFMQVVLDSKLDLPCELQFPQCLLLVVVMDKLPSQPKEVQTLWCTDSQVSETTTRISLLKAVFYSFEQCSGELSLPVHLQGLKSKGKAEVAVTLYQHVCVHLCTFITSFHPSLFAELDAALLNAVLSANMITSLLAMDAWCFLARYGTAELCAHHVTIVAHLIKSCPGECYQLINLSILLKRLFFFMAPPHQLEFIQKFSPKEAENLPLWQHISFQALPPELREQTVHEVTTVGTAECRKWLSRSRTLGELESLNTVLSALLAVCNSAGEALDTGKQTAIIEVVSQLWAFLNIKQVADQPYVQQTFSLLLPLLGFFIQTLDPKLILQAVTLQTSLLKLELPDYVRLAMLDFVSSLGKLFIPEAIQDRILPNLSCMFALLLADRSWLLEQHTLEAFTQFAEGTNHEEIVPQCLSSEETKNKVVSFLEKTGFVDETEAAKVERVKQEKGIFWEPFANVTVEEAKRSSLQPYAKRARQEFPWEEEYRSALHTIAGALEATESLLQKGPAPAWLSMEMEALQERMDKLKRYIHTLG
# UniProt P17655: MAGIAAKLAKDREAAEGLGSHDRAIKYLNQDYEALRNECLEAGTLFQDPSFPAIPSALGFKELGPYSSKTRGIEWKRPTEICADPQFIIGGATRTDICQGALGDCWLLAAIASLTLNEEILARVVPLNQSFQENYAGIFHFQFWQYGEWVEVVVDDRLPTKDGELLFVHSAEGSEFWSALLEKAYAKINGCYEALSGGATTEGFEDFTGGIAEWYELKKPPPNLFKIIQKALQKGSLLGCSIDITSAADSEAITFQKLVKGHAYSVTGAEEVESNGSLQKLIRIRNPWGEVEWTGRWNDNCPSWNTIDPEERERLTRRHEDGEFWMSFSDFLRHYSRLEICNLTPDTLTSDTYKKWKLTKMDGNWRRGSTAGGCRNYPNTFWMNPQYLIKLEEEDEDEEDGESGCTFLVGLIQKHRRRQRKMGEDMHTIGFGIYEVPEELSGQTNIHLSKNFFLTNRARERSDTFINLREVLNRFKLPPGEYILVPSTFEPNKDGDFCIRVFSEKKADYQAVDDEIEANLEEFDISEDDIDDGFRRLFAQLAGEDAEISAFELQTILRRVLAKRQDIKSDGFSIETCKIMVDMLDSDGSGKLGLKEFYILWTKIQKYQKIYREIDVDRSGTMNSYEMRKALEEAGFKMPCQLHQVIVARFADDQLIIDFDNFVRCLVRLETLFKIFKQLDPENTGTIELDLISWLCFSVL
# UniProt P47756: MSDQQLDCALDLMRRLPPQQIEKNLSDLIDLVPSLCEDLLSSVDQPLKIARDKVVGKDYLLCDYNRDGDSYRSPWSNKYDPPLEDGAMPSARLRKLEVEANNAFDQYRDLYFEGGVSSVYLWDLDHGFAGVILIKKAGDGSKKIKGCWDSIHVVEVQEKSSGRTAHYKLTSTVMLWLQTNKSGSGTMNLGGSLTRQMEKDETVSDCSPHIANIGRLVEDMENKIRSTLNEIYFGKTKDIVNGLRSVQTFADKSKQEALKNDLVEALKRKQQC
# UniProt Q5PSV4: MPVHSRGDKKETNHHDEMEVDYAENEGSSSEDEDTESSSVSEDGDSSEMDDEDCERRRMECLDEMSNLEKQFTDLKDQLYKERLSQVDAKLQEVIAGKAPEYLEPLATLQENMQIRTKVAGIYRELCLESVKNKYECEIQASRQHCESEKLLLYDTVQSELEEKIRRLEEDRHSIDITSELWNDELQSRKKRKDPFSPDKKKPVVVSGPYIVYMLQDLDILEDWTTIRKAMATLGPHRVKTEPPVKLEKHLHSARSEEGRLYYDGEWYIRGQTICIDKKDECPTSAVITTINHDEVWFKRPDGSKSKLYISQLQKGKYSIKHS
# The other results are listed elsewhere or left out. The data scatter; read single values as rough.
# Compound: ClCC(=O)N[C@H]1CCCc2ccccc12
# Assay: log2 mean competition ratio of IA-DTB cysteine labelling (DMSO/compound) (log2 ratio); higher = stronger cysteine engagement by compound
# Settings: 200 µM; treatment time: 4 h; cell line lysate: HEK293T
# Method: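 IA-DTB competitive cysteine chemoproteomics in HEK293T RIPA lysate. Lysates were treated with compound 29 or 30 at 50 or 200 µM for 4 h, then IA-DTB (500 µM, 1 h), trypsin-digested, NeutrAvidin-enriched and analysed by diaPASEF. Competition ratio = intensity DMSO / intensity compound (n=4 treated, n=64 DMSO); binding: mean log2 CR ≥ 1 and p ≤ 0.05 plus QC filters. Target is the cysteine site.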
row,Target,log2 mean competition ratio
1,BUB1B C767 (UniProt O60566),-0.226
2,CAAP1 C226 (UniProt Q9H8G2),-0.0236
3,BUB1B C656 (UniProt O60566),-0.174
4,CASP8AP2 C1100 (UniProt Q9UKL3),-0.677
5,BRIP1 C42 (UniProt Q9BX63),0.33
6,CACUL1 C362 (UniProt Q86Y37),-0.0504
7,BRCA1 C226 (UniProt P38398),-0.157
8,CAND1 C356,-0.086
9,CAND1 C1134,-0.113
10,CAMKK1 C243 (UniProt Q8N5S9),-0.112
11,C12orf57 C73 (UniProt Q99622),0.223
12,CAMKMT C208 (UniProt Q7Z624),-0.159
13,CBR3 C150 (UniProt O75828),-0.0374
14,CAMKMT C281 (UniProt Q7Z624),0.371
15,BOD1L1 C74 (UniProt Q8NFC6),0.215
16,CAD C379,-0.154
17,BPTF C1357,0.352
18,CASP6 C87 (UniProt P55212),-0.152
19,BRD7 C646 (UniProt Q9NPI1),0.371

row,Target,log2 mean competition ratio
1,CBS C15 (UniProt P35520),-0.11
2,CASP8AP2 C174 (UniProt Q9UKL3),-0.227
3,CBR1 C150 (UniProt P16152),0.132
4,CARD8 C149 (UniProt Q9Y2G2),0.113
5,C2CD5 C449 (UniProt Q86YS7),-0.0314
6,C1orf112 C559 (UniProt Q9NSG2),-0.0272
7,CAND1 C1007,0.0652
8,CAPN2 C301 (UniProt P17655),-0.138
9,CAPZB C147 (UniProt P47756),-0.0685
10,BTD C371 (UniProt P43251),0.215
11,CAMK2D C7 (UniProt Q13557),0.216
12,BTBD2 C294 (UniProt Q9BX70),-0.0472
13,CARNMT1 C180 (UniProt Q8N4J0),-0.0546
14,CAD C1215,-0.13
15,C17orf80 C307 (UniProt Q9BSJ5),0.227
16,C22orf39 C105 (UniProt Q6P5X5),0.133
17,BRMS1L C61 (UniProt Q5PSV4),0.211
18,BOD1L1 C2164 (UniProt Q8NFC6),0.0957
19,BRCA1 C442 (UniProt P38398),0.0549

# Exported with bars between the fields: part of the list above
row | Target | log2 mean competition ratio
6 | CACUL1 C362 (UniProt Q86Y37) | -0.0504
8 | CAND1 C356 | -0.086
